Reference: patent publication US20160347813A1, “GLUCAGON ANALOGUES” (Zealand Pharma A/S, priority 2011, published 2016)

Amino acid sequences for entries named in this document (tags omitted). Residues count along the entry.
UniProt P47871, 26-477: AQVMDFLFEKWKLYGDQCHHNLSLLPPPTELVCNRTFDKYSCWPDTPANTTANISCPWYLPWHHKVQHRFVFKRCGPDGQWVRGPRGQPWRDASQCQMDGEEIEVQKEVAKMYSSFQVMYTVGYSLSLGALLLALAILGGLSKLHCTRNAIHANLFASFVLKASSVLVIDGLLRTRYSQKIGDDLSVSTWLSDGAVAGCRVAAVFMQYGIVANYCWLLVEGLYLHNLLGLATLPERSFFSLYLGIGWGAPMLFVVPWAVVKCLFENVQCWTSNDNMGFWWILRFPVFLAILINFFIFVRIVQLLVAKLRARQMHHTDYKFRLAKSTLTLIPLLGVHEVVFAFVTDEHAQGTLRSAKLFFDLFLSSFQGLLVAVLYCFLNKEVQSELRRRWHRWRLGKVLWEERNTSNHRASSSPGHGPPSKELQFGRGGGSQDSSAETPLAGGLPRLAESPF

Molecular target: T1, human Glucagon-R (Homo sapiens, UniProt P47871)
T1 construct: The DNA encoding the Glucagon-R or the GLP-1-R was amplified by PCR using primers encoding terminal restriction sites for subcloning; expressed in transfected cells
Assay: Glucagon receptor efficacy assay (cAMP generation in HEK293 cells)
Assay type: cell-based
Description: The DNA encoding the Glucagon-R or the GLP-1-R was amplified by PCR using primers encoding terminal restriction sites for subcloning. The 5′-end primers additionally encoded a near Kozak consensus sequence to ensure efficient translation. The fidelity of the DNA encoding the Glucagon-R and the GLP-1-R was confirmed by DNA sequencing. The PCR products encoding the Glucagon-R or the GLP-1-R were subcloned into a mammalian expression vector containing a neomycin (G418) resistance marker. The mammalian expression vectors encoding the Glucagon-R or the GLP-1-R were transfected into HEK293 cells by a standard calcium phosphate transfection method. 48 hr after transfection cells were seeded for limited dilution cloning and selected with 1 mg/ml G418 in the culture medium. Three weeks later 12 surviving colonies of Glucagon-R and GLP-1-R expressing cells were picked, propagated and tested in the Glucagon-R and GLP-1-R efficacy assays as described below. One Glucagon-R expressing clone and one GLP-1-R expressing clone were chosen for compound profiling.
On the day of analysis, growth medium was removed and the cells washed once with 200 μl Tyrode buffer. Cells were incubated in 100 μl Tyrode buffer containing increasing concentrations of test peptides, 100 μM IBMX, and 6 mM glucose for up 15 min at 37° C. The reaction was stopped by addition of 25 μl 0.5 M HCl and incubated on ice for 60 min. […]

In the case of CCCCCCCCCCCCCCCC(=O)N[C@@H](CCC(=O)NCCCC[C@H](NC(=O)[C@H](CCC(=O)O)NC(=O)[C@H](CC(=O)O)NC(=O)[C@H](CC(C)C)NC(=O)[C@H](Cc1ccc(O)cc1)NC(=O)[C@H](CCCCN)NC(=O)[C@H](CO)NC(=O)[C@H](Cc1ccc(O)cc1)NC(=O)[C@H](CC(=O)O)NC(=O)[C@H](CO)NC(=O)[C@@H](NC(=O)[C@H](Cc1ccccc1)NC(=O)[C@@H](NC(=O)CNC(=O)[C@H](CCC(N)=O)NC(=O)[C@@H](CO)NC(=O)[C@@H](N)Cc1c[nH]cn1)[C@@H](C)O)[C@@H](C)O)C(=O)N[C@@H](CCCNC(=N)N)C(=O)N[C@@H](C)C(=O)N[C@@H](CCCCN)C(=O)N[C@@H](CC(=O)O)C(=O)N[C@@H](Cc1ccccc1)C(=O)N[C@H](C(=O)N[C@@H](CCC(=O)O)C(=O)N[C@@H](Cc1c[nH]c2ccccc12)C(=O)N[C@@H](CC(C)C)C(=O)N[C@@H](CC(C)C)C(=O)N[C@@H](CO)C(=O)N[C@@H](C)C(N)=O)[C@@H](C)CC)C(=O)O [Compound 17], the EC50 is reported as 0.05 nM.
